Assay results from paper PMC10740983.
Results are given in words; binding and its absence hold for the method and conditions named. Binding seen in cells or lysates may run through a third protein. Some binding calls cover weakened binding; strength is not graded here.

Sequences of proteins named here, by UniProt entry; tags and fusion partners are left off. A change or cut given only in a name is not applied to a line headed by its entry. A line that says so, or that is headed by a name, gives the form on record, which may keep a tag or linker. Residues count along the entry.
UniProt Q04206: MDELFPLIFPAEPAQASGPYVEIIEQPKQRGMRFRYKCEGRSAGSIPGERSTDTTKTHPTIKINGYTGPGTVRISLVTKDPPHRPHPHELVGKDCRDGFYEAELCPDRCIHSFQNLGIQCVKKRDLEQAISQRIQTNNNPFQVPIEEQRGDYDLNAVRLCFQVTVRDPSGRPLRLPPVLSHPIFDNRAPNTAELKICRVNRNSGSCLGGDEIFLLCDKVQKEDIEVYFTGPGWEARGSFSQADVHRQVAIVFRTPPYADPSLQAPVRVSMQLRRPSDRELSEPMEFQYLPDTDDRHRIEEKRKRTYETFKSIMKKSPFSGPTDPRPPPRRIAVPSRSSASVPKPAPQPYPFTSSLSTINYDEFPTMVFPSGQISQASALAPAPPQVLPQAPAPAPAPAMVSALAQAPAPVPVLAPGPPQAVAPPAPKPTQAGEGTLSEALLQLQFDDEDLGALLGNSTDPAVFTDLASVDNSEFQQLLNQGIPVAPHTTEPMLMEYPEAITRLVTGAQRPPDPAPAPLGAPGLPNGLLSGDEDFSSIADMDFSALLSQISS
UniProt P61586: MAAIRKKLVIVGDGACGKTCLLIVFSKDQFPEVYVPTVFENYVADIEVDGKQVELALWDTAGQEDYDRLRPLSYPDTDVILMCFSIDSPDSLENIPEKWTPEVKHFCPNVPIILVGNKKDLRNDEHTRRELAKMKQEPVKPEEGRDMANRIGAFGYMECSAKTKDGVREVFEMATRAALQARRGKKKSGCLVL
UniProt Q9QUI0: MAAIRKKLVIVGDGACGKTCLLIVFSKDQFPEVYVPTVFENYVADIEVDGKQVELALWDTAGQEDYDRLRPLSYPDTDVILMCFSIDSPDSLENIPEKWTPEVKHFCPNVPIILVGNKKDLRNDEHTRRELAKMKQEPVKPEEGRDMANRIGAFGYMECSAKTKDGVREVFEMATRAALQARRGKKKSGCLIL
PKM1 (P14618-2, form named): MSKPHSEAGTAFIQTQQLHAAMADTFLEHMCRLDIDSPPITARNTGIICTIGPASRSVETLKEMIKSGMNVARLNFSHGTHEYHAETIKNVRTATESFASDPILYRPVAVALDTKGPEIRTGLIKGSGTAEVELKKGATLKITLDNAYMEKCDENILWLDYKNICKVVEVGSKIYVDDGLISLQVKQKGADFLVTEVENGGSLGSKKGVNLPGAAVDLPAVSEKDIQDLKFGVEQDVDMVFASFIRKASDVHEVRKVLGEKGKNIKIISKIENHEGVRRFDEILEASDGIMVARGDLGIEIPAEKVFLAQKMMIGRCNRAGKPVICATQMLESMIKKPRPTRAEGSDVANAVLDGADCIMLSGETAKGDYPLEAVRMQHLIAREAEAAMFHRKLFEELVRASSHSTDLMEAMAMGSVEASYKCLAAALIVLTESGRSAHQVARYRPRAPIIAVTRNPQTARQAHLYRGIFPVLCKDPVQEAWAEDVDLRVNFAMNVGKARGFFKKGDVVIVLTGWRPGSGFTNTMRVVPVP
UniProt P35222: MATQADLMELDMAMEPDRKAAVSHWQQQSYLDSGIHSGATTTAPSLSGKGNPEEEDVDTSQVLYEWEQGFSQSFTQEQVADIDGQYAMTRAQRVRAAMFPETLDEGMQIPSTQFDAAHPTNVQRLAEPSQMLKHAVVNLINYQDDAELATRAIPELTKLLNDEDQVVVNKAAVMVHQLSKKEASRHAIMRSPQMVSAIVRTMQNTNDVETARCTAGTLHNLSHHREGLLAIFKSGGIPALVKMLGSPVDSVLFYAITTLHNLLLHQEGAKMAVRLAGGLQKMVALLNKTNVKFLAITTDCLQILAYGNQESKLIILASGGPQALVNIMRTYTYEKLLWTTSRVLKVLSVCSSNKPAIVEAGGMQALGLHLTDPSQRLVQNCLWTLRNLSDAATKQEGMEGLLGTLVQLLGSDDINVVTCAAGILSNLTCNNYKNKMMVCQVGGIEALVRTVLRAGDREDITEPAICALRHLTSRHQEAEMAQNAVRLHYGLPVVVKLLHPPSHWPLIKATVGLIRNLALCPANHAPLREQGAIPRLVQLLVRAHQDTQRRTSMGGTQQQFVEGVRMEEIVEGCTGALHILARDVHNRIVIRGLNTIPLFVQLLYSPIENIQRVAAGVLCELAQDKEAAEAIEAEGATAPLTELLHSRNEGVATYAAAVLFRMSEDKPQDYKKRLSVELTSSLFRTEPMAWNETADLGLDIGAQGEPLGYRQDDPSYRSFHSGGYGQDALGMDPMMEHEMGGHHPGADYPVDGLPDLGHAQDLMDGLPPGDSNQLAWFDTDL
UniProt O75116: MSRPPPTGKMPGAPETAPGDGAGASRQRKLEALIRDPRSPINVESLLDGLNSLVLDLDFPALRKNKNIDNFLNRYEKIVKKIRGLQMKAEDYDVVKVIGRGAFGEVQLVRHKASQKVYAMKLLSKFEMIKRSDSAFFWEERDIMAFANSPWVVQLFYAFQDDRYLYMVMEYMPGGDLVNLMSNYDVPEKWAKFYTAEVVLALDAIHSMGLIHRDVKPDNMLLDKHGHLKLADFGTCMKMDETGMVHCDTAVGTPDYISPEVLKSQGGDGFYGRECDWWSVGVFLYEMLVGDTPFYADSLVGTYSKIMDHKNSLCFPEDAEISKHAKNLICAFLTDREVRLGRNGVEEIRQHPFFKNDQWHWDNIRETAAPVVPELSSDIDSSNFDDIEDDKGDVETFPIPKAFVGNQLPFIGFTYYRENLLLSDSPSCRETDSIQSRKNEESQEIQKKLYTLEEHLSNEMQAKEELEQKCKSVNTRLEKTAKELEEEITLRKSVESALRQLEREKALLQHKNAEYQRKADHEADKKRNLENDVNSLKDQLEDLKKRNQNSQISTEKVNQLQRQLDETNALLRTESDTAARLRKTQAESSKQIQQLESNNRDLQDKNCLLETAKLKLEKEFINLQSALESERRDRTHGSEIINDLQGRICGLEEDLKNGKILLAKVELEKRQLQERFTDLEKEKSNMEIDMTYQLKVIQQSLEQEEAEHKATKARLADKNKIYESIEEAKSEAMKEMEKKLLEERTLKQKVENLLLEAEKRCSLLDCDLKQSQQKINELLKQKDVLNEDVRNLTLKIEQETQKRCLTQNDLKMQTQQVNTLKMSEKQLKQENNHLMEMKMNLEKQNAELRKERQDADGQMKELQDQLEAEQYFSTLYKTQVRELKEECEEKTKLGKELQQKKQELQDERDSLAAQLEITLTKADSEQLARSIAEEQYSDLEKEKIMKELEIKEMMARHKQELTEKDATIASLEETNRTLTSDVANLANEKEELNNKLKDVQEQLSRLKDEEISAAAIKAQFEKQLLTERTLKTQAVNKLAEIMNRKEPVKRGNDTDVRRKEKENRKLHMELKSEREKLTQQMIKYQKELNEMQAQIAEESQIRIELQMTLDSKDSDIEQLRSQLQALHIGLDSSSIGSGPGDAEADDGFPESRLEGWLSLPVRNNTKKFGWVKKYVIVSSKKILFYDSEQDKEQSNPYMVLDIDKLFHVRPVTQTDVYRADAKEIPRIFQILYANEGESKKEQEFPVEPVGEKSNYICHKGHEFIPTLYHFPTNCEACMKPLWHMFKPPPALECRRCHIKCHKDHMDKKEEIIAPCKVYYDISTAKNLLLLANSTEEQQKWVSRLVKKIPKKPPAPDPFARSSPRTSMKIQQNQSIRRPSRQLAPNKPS
UniProt P25799, residues 1-431: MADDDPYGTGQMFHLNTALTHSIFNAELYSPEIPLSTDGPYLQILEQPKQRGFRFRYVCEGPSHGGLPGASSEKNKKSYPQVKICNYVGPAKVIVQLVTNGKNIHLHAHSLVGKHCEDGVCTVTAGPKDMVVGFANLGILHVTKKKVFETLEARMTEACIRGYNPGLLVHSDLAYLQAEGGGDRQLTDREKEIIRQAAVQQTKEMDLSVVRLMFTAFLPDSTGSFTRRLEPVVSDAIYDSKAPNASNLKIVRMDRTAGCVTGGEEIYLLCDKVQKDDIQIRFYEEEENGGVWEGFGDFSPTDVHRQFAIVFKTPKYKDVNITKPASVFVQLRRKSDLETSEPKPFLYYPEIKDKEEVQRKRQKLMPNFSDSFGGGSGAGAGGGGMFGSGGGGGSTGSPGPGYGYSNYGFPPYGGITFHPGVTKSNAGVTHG

Key:
HA-p65 S536D (human) = HA-p65 S536D (human) (UniProt Q04206); test: co-IP; immunoprecipitation with HA antibodies from HEK293T cells transfected with HA-p65 or HA-RhoA constructs (2 μg/mL, 24 h), serum-depleted 8 h, stimulated with LPS (Figure 2I,J); Western blot
HA-p65 WT (human) = HA-p65 WT (human) (UniProt Q04206); test: as above
[1] = biological target: T1, phosphoglycerate kinase 1 (human (endogenous in HEK293T)) (UniProt P00558); test: co-IP; immunoprecipitation of PGK1 from HEK293T lysates, without or with LPS (Figure 6D); Western blot
T1 sequence: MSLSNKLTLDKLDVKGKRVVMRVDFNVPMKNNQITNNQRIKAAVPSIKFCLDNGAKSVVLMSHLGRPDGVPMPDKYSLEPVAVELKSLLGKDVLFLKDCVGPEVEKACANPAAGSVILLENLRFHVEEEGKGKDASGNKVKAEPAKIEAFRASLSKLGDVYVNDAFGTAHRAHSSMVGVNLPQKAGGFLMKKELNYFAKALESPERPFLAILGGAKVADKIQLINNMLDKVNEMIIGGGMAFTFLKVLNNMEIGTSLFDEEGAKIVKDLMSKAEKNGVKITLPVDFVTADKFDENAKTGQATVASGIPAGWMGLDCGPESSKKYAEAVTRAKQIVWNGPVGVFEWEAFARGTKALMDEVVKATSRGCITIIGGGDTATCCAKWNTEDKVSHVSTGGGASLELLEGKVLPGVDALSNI

[2] = biological target: p-Tyr42 RhoA (HEK293T) (human (endogenous in HEK293T)) (UniProt P61586); test: co-IP; immunoprecipitation with p-Tyr42 RhoA antibodies from HEK293T lysates, without or with LPS (Figure 2F; Figure 5E: 10 μg/mL LPS, 4 h); Western blot
HA-RhoA WT = HA-RhoA WT (UniProt P61586); test: co-IP; immunoprecipitation with HA antibodies from HEK293T cells transfected with HA-p65 or HA-RhoA constructs (2 μg/mL, 24 h), serum-depleted 8 h, stimulated with LPS (Figure 2I,J); Western blot
HA-RhoA Y42E = HA-RhoA Y42E (UniProt P61586); test: as above
[3] = biological target: p-Ser536 p65/RelA (HEK293T) (human (endogenous in HEK293T)) (UniProt Q04206); test: co-IP; immunoprecipitation with p-p65 antibodies from HEK293T lysates, serum-free 8 h, LPS 10 μg/mL 4 h (Figure 5D); Western blot
[4] = biological target: p-Tyr42 RhoA (4T1, RAW264.7) (mouse (endogenous in 4T1 and RAW264.7)) (UniProt Q9QUI0); test: co-IP; immunoprecipitation with p-Tyr42 RhoA antibodies from 4T1 lysates, without or with LPS (Figure 2G); Western blot

In the case of “p-Tyr42 RhoA (HEK293T) (from UniProt P61586 1-193)”, the binding (HA-p65 S536D (human)) was “binds” and the binding (HA-p65 WT (human)) was “binds”.
For “PKM1 (from UniProt P14618-2 1-531) (enzyme)”, the binding [1] was “binds”.
For “PKM2 (from UniProt P14618-1 1-531) (enzyme)”, the binding [1] was “binds”.
β-catenin (from UniProt P35222 1-781) was tested, and the binding [1] was “binds”.
With “p-Ser536 p65/RelA (HEK293T) (from UniProt Q04206 1-551)” the binding [2] was “binds”, the binding (HA-RhoA WT) was “binds” and the binding (HA-RhoA Y42E) was “binds”.
In the case of “ROCK2 (from UniProt O75116 1-1388) (enzyme)”, the binding [3] was “binds” and the binding [2] was “binds”.
With p50 (4T1) (from UniProt P25799 1-431) the binding [4] was “binds”.
